Laboratory results published in patent publication US20100092464A1.
No constants are given. Whether binding was seen depends on the method and setting. Some binding calls cover weakened binding; strength is not graded here.

The chains behind the UniProt entries cited, without tags or fusion partners. Where a name states a change or a piece, a line headed by the entry shows the natural chain unless it says otherwise.
UniProt P09603: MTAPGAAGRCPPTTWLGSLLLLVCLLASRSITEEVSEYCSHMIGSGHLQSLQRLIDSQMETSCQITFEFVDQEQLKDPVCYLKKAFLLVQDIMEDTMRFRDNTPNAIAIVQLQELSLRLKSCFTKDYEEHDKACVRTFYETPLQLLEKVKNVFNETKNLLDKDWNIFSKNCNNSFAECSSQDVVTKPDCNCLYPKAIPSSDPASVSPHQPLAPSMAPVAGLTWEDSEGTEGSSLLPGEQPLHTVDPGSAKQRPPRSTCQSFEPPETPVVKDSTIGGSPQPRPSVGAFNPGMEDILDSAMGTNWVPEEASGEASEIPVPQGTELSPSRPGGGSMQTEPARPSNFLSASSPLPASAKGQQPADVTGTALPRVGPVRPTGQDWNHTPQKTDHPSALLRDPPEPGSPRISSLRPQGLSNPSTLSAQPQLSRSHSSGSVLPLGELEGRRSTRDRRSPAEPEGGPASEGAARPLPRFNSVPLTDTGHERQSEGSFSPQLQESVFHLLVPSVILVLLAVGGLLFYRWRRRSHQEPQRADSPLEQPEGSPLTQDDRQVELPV

Assays:
[1] = molecular target: human macrophage colony stimulating factor (M-CSF) (human) (UniProt P09603); test: SPR (Biacore): M-CSF amine-coupled to CM5 chip, antibody flowed over
[2] = molecular target: human macrophage colony stimulating factor (M-CSF) (human) (UniProt P09603); test: hybridoma screening by ELISA on human M-CSF

| binding [1] | binding [2] | Binder |
| --- | --- | --- |
| binds | – | Human Engineered RX1 antibody heRX1-1.G1 (antibody, V domains shown) VH: DVQLQESGPGLVKPSQTLSLTCTVTDYSITSDYAWNWIRQFPGKKLEWMGYISYSGSTSYNPSLKSRITISRDTSKNQFSLQLNSVTAADTATYYCASFDYAHAMDYWGQGTTVTVSS VL: EIVLTQSPGTLSVSPGERVTFSCRASQSIGTSIHWYQQKTGQSPRLLIKYASERISGIPDRFSGSGSGTDFTLTISRVESEDFADYYCQQINSWPTTFGQGTKLEIKR |
| binds | – | Human Engineered RX1 antibody heRX1-1.G4 (antibody, V domains shown) VH: DVQLQESGPGLVKPSQTLSLTCTVTDYSITSDYAWNWIRQFPGKKLEWMGYISYSGSTSYNPSLKSRITISRDTSKNQFSLQLNSVTAADTATYYCASFDYAHAMDYWGQGTTVTVSS VL: EIVLTQSPGTLSVSPGERVTFSCRASQSIGTSIHWYQQKTGQSPRLLIKYASERISGIPDRFSGSGSGTDFTLTISRVESEDFADYYCQQINSWPTTFGQGTKLEIKR |
| – | binds | M-CSF-specific murine monoclonal antibody MC1 (antibody, mouse IgG2a, kappa, V domains shown) VH: EVKLVESGGGLVQPGGSLKLSCATSGFTFSDYYMYWVRQTPEKRLEWVAYISNGGGSTYYPDTVKGRFTISRDNAKNTLYLQMSRLKSEDTAMYYCARQGSYGYPFAYWGQGTLVTVSA VL: AIQMTQTTSSLSASLGDRVTISCSASQGISNYLNWYQQKPDGTVKLLIYYTSSLHSGVPSRFSGSGSGTDYSLTISNLEPEDIATYYCQQYSKLPWTFGGGTKLEIKR |
